Source: publication PMC8786740
Results are given in words; binding and its absence hold for the method and conditions named. Binding seen in cells or lysates may run through a third protein. Some results given as binding are weak or reduced against the parent protein; the word gives no strength. Where a sequence is shown, tags or fusion partners need not be part of it.

T1: BAK1 fused to the C-terminal half of GFP (35Spro:BAK1-cGFP) (Arabidopsis thaliana) (UniProt Q94F62)
T1 sequence: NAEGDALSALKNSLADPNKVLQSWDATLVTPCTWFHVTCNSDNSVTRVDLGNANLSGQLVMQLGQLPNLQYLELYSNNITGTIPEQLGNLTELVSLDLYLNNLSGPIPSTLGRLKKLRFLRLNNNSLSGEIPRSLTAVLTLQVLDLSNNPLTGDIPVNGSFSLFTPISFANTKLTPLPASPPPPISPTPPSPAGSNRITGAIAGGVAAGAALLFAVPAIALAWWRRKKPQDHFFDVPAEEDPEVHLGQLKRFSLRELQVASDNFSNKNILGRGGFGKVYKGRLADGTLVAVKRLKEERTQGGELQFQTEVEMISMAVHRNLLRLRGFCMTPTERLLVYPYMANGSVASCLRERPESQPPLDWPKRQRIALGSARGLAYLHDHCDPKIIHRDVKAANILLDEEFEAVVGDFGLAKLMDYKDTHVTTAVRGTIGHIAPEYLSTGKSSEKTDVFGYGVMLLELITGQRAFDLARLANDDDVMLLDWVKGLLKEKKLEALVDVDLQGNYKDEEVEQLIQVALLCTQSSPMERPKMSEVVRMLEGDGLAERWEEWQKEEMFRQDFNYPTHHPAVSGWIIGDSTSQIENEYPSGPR

T2: PXC3 with a C-terminal GFP fusion (35Spro:PXC3-GFP) (Arabidopsis thaliana) (UniProt O22938)
T2 sequence: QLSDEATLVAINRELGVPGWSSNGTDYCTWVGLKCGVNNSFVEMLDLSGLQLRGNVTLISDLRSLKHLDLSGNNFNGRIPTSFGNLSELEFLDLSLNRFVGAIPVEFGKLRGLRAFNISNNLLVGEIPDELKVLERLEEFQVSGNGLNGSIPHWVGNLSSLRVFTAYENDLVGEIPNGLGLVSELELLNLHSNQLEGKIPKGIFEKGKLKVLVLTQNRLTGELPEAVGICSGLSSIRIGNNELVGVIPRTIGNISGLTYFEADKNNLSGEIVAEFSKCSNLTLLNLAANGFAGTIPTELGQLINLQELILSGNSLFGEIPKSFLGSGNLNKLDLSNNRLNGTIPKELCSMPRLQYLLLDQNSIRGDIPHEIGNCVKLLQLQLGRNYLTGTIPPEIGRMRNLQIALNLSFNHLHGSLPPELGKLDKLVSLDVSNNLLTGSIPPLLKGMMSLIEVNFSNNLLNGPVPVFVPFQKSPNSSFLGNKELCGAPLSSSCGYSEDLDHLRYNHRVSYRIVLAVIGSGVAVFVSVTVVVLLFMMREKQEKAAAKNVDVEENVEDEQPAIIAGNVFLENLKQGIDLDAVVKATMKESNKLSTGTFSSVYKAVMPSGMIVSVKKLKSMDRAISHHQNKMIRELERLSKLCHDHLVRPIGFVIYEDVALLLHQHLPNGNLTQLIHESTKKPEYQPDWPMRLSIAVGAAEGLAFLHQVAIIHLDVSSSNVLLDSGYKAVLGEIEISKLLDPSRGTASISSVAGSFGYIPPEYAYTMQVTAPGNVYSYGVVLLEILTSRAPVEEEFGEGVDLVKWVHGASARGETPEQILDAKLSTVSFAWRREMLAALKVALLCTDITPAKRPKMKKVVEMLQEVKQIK


Columns and labels:
[1] = molecular target: T1, BAK1 fused to the C-terminal half of GFP (35Spro:BAK1-cGFP) (Arabidopsis thaliana); assay: split reporter; BIFC: BAK1-cGFP with LRR-RLK-nGFP, transient expression in N. benthamiana leaves, confocal imaging 3 days after infiltration; mean GFP signal compared with the PEPR1-nGFP/BAK1-cGFP pair taken as background
[2] = molecular target: T2, PXC3 with a C-terminal GFP fusion (35Spro:PXC3-GFP) (Arabidopsis thaliana); assay: co-IP; PXC3-GFP and BAK1-HA co-infiltrated in tobacco leaves; leaf extract (1% Triton X-100, 150 mM NaCl), GFP-trap magnetic agarose beads 1 h at 4 C; western blot with anti-HA and anti-GFP

Binder	binding [1]	binding [2]
PXC3 fused to the N-terminal half of GFP (35Spro:PXC3-nGFP) (receptor, UniProt O22938 24-890) QLSDEATLVAINRELGVPGWSSNGTDYCTWVGLKCGVNNSFVEMLDLSGLQLRGNVTLISDLRSLKHLDLSGNNFNGRIPTSFGNLSELEFLDLSLNRFVGAIPVEFGKLRGLRAFNISNNLLVGEIPDELKVLERLEEFQVSGNGLNGSIPHWVGNLSSLRVFTAYENDLVGEIPNGLGLVSELELLNLHSNQLEGKIPKGIFEKGKLKVLVLTQNRLTGELPEAVGICSGLSSIRIGNNELVGVIPRTIGNISGLTYFEADKNNLSGEIVAEFSKCSNLTLLNLAANGFAGTIPTELGQLINLQELILSGNSLFGEIPKSFLGSGNLNKLDLSNNRLNGTIPKELCSMPRLQYLLLDQNSIRGDIPHEIGNCVKLLQLQLGRNYLTGTIPPEIGRMRNLQIALNLSFNHLHGSLPPELGKLDKLVSLDVSNNLLTGSIPPLLKGMMSLIEVNFSNNLLNGPVPVFVPFQKSPNSSFLGNKELCGAPLSSSCGYSEDLDHLRYNHRVSYRIVLAVIGSGVAVFVSVTVVVLLFMMREKQEKAAAKNVDVEENVEDEQPAIIAGNVFLENLKQGIDLDAVVKATMKESNKLSTGTFSSVYKAVMPSGMIVSVKKLKSMDRAISHHQNKMIRELERLSKLCHDHLVRPIGFVIYEDVALLLHQHLPNGNLTQLIHESTKKPEYQPDWPMRLSIAVGAAEGLAFLHQVAIIHLDVSSSNVLLDSGYKAVLGEIEISKLLDPSRGTASISSVAGSFGYIPPEYAYTMQVTAPGNVYSYGVVLLEILTSRAPVEEEFGEGVDLVKWVHGASARGETPEQILDAKLSTVSFAWRREMLAALKVALLCTDITPAKRPKMKKVVEMLQEVKQIK	binds	–
BAK1 fused to a 3x HA tag (35Spro:BAK1-HA) (receptor, UniProt Q94F62 26-615) NAEGDALSALKNSLADPNKVLQSWDATLVTPCTWFHVTCNSDNSVTRVDLGNANLSGQLVMQLGQLPNLQYLELYSNNITGTIPEQLGNLTELVSLDLYLNNLSGPIPSTLGRLKKLRFLRLNNNSLSGEIPRSLTAVLTLQVLDLSNNPLTGDIPVNGSFSLFTPISFANTKLTPLPASPPPPISPTPPSPAGSNRITGAIAGGVAAGAALLFAVPAIALAWWRRKKPQDHFFDVPAEEDPEVHLGQLKRFSLRELQVASDNFSNKNILGRGGFGKVYKGRLADGTLVAVKRLKEERTQGGELQFQTEVEMISMAVHRNLLRLRGFCMTPTERLLVYPYMANGSVASCLRERPESQPPLDWPKRQRIALGSARGLAYLHDHCDPKIIHRDVKAANILLDEEFEAVVGDFGLAKLMDYKDTHVTTAVRGTIGHIAPEYLSTGKSSEKTDVFGYGVMLLELITGQRAFDLARLANDDDVMLLDWVKGLLKEKKLEALVDVDLQGNYKDEEVEQLIQVALLCTQSSPMERPKMSEVVRMLEGDGLAERWEEWQKEEMFRQDFNYPTHHPAVSGWIIGDSTSQIENEYPSGPR	–	binds
BIR2 fused to the N-terminal half of GFP (35Spro:BIR2-nGFP) (receptor, UniProt Q9LSI9 29-605) ADEDDIRCLRGLKASLTDPQNALKSWNFDNTTLGFLCNFVGVSCWNNQENRVINLELRDMGLSGKIPDSLQYCASLQKLDLSSNRLSGNIPTELCNWLPFLVSLDLSNNELNGEIPPDLAKCSFVNSLVLSDNRLSGQIPVQFSALGRLGRFSVANNDLSGRIPVFFSSPSYSSDDFSGNKGLCGRPLSSSCGGLSKKNLGIIIAAGVFGAAASMLLAFGIWWYYHLKWTRRRRSGLTEVGVSGLAQRLRSHKLTQVSLFQKPLVKVKLGDLMAATNNFNSENIIVSTRTGTTYKALLPDGSALAVKHLSTCKLGEREFRYEMNQLWELRHSNLAPLLGFCVVEEEKFLVYKYMSNGTLHSLLDSNRGELDWSTRFRIGLGAARGLAWLHHGCRPPILHQNICSSVILIDEDFDARIIDSGLARLMVPSDNNESSFMTGDLGEFGYVAPEYSTTMLASLKGDVYGLGVVLLELATGLKAVGGEGFKGSLVDWVKQLESSGRIAETFDENIRGKGHDEEISKFVEIALNCVSSRPKERWSMFQAYQSLKAIAEKQGYSFSEQDDDFPLIFDTQENEKV	binds	–
